The supplement of paper PMC8166895
Structures can show the parent of a compound that is named as a salt. Some of the results follow. Most entries show no effect beyond the scatter of the controls.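 Melting temperature was read by differential scanning fluorimetry in a single-replicate pilot screen of a library of approved drugs and clinical or known-target compounds. Compounds raising the melting point by at least 2 °C were the top stabilizing hits, and negative shifts mean destabilization.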

These molecules were tested on SARS-CoV-2 main protease (Mpro, nsp5) (assay: thermal shift ΔTm of Mpro relative to plate average Tm; higher = stronger thermal stabilization of Mpro (binding)). Details: 10 µM; protein concentration 1 µM.
`Cc1c(CC(=O)O)c2cccnc2n1Cc1ccc(S(C)(=O)=O)cc1C(F)(F)F` [Fevipiprant] was tested, and the “thermal shift ΔTm of Mpro” value was 0.0122 °C.
For `O=C(NCc1ccc(Oc2ccccc2)cc1)c1nc(-c2cc(Br)c(O)c(Br)c2)no1`, the “thermal shift ΔTm of Mpro” value was 1.06 °C.
In the case of `CCCCCCCCCCCCCCCC[N+](C)(C)C` [Cetrimonium Bromide (CTAB)], the “thermal shift ΔTm of Mpro” value is reported as -0.836 °C.
In the case of `Cc1c(Cn2c(C)nc3c(C(=O)O)cc(N4CCOCC4)cc32)cccc1C(F)(F)F`, the “thermal shift ΔTm of Mpro” value is reported as -0.00622 °C.
For `O=C(O)CCc1nc2ccccc2[nH]1` [Procodazole], the “thermal shift ΔTm of Mpro” value was 0.00827 °C.
`Cn1c(SCC(=O)N2CCC[C@H]2C(=O)Nc2ccccc2-c2ccccc2)nc2ccccc21` was tested, and the “thermal shift ΔTm of Mpro” value was -0.033 °C.
In the case of `CC(=C(CCO)SSCC1CCCO1)N(C=O)Cc1cnc(C)nc1N` (stereo in doubt) [Fursultiamine], the “thermal shift ΔTm of Mpro” value is reported as 0.246 °C.
For `NCc1c[nH]c(=S)n1[C@H]1CCc2c(F)cc(F)cc2C1` [Nepicastat (SYN-117) HCl], the “thermal shift ΔTm of Mpro” value was -0.281 °C.
With `Cn1c(=O)c2c(ncn2CC(O)CO)n(C)c1=O` (centres undefined) [Dyphylline] the “thermal shift ΔTm of Mpro” value was 0.648 °C.
With `CCCc1nc(C(C)(C)O)c(C(=O)OCc2oc(=O)oc2C)n1Cc1ccc(-c2ccccc2-c2nnn[nH]2)cc1` [Olmesartan Medoxomil] the “thermal shift ΔTm of Mpro” value was -0.145 °C.
With `COc1cccc2c1nc1ccccc1[n+]2C` [1-Methoxy PMS] the “thermal shift ΔTm of Mpro” value was -0.294 °C.
`NC(=O)c1cccnc1` [Nicotinamide (Vitamin B3)] was tested, and the “thermal shift ΔTm of Mpro” value was 0.0951 °C.
`OCc1ccc(-c2nn(Cc3ccccc3)c3ccccc23)o1` [Lificiguat] was tested, and the “thermal shift ΔTm of Mpro” value was -0.0467 °C.
With `Nc1nccs1` [Aminothiazole] the “thermal shift ΔTm of Mpro” value was -0.0695 °C.
`COc1ccc(Br)cc1NC(=O)Nc1cccc2c1ccn2Cc1ccnc(N)c1` was tested, and the “thermal shift ΔTm of Mpro” value was 0.0972 °C.
For `O=[N+]([O-])c1ncc[nH]1` [Azomycin], the “thermal shift ΔTm of Mpro” value was -0.0527 °C.
With `c1ccc2c(-c3cnn4cc(-c5ccc(N6CCNCC6)cc5)cnc34)ccnc2c1` the “thermal shift ΔTm of Mpro” value was 0.0685 °C.
With `CC(C)(Oc1ccc(C2CC2(Cl)Cl)cc1)C(=O)O` (centres undefined) [Ciprofibrate] the “thermal shift ΔTm of Mpro” value was 0.317 °C.
`Cc1[nH]c(/C=C2\C(=O)Nc3ccc(S(=O)(=O)Cc4c(Cl)cccc4Cl)cc32)c(C)c1C(=O)N1CCC[C@@H]1CN1CCCC1` was tested, and the “thermal shift ΔTm of Mpro” value was 0.12 °C.
In the case of `COc1ccc(CNCc2cccc3ccccc23)cc1`, the “thermal shift ΔTm of Mpro” value is reported as -0.0461 °C.
`NC(=O)[C@@H](CCC(F)(F)F)N(Cc1ccc(-c2ncon2)cc1F)S(=O)(=O)c1ccc(Cl)cc1` was tested, and the “thermal shift ΔTm of Mpro” value was -0.0854 °C.
`CC1=C(C(=O)O)N2C(=O)[C@@H](NC(=O)[C@H](N)c3ccc(O)cc3)[C@H]2SC1` [Cefadroxil] was tested, and the “thermal shift ΔTm of Mpro” value was 0.011 °C.
In the case of `CCCCCCCCCC(=O)O[C@H]1CC[C@H]2[C@@H]3CCC4=CC(=O)CC[C@@H]4[C@H]3CC[C@]12C` [Nandrolone decanoate], the “thermal shift ΔTm of Mpro” value is reported as -0.0603 °C.
With `N#CC(=C(/N)Sc1ccccc1N)/C(C#N)=C(\N)Sc1ccccc1N` the “thermal shift ΔTm of Mpro” value was 0.143 °C.
